Our source for the binding values is publication PMC9475462.

Sequences of proteins named here, by UniProt entry; tags and fusion partners are left off. A change or cut given only in a name is not applied to a line headed by its entry.
UniProt P14618: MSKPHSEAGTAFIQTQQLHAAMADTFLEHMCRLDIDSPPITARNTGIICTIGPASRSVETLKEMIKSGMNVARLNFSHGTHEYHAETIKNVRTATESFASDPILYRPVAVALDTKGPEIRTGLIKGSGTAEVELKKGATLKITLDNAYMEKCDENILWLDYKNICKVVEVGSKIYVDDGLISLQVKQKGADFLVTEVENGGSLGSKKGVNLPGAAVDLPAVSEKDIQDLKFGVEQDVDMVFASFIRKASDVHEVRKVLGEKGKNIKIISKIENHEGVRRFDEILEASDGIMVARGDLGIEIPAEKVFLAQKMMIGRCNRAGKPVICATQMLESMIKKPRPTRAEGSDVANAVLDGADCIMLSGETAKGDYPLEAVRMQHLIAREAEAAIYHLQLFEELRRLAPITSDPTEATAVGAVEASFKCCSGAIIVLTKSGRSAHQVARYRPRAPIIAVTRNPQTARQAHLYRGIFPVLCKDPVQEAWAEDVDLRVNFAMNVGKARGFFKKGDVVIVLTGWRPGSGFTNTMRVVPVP

Assay [1] addresses T1, full-length HA-tagged ARHGAP24 (ARH-FL-HA), in HEK293T cells (UniProt Q8N264).
T1 sequence: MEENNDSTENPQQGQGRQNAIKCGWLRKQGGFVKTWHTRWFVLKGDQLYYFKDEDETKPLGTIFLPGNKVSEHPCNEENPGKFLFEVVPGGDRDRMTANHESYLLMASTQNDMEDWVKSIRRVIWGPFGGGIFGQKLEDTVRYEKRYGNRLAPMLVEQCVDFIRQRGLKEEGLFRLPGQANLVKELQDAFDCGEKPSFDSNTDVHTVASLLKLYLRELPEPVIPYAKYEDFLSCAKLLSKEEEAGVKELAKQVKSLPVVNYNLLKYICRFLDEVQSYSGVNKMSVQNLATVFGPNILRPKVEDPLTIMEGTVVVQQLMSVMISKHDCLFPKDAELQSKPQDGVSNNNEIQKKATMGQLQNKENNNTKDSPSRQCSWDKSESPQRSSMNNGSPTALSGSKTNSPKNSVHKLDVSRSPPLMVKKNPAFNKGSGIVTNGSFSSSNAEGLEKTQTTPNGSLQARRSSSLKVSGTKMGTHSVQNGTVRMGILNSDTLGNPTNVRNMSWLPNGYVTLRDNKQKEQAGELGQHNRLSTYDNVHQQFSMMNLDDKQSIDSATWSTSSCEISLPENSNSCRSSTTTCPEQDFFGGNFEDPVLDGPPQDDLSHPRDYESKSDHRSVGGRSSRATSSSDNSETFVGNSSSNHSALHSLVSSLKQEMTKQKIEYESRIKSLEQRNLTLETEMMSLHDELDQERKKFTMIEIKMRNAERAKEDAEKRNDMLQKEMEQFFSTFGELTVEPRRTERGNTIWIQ
Nature of the assay: co-IP; HEK293T (HEK293) cells co-transfected with HA-tagged ARHGAP24, FLAG-tagged PKM2 and/or His-tagged WWP1 constructs; IP and western blot. On the technique in general: A western blot detects proteins with antibodies after separation by electrophoresis.

The target of assay [2] is T2, ARHGAP24 in HCC cells (Figure 6B) (UniProt Q8N264).
T2 sequence: T1 sequence
The assay can be described thus: co-IP; HCC cells (Figure 6B); cell lines and antibodies not told in the text shown.

Assay [3] deals with T3, full-length HA-tagged ARHGAP24 (FL-ARH-HA), in HCCLM3 cells (UniProt Q8N264).
T3 sequence: T1 sequence
Nature of the assay: co-IP; HCCLM3 cells transfected with FL-ARH-HA or the deletion mutant ARH-ΔCD-HA; IP and western blot.

Assay [4] has as its target T4, FLAG-ARHGAP24 (Rho GTPase activating protein 24) (UniProt Q8N264).
T4 sequence: T1 sequence
The assay can be described thus: co-IP; HCCLM3 cells transfected with Flag-tagged ARHGAP24, in the presence of MG132.

Results are given in words; binding and its absence hold for the method and conditions named. In cells and extracts the contact can be indirect. Some entries that bind do so weakly or less than the wild type. For some assays here: Sequences can lack the tags named with a protein.

“C-terminal of PKM2, FLAG-tagged (PKM2-CD) (from UniProt P14618 388-531) (domain or fragment)”: the binding entry in assay [1] is listed as “binds”.

Take “PKM2 in HCC cells (Figure 6B) (from UniProt P14618 1-531)”: the binding entry in assay [2] is “binds”. For “full-length FLAG-tagged PKM2 (PKM2-FL-FLAG), in HEK293T cells (from UniProt P14618 1-531)”, in assay [1], the binding result was “binds”. In the case of “pyruvate kinase M2 (PKM2), in HCCLM3 cells (from UniProt P14618 1-531)”, the binding entry in assay [3] and in assay [4] was “binds” throughout.
